The target of this test is PqiC^17-187, N-terminally truncated soluble construct of E. coli PqiC (E. coli) (UniProt P0AB10). The experiment in a line: SEC; PqiC^17-187 on Superdex 200 26/600 in 20 mM Tris, 150 mM NaCl, pH 8.5; elution compared with Ribonuclease A (13.7 kDa); both purified.

These are yes or no findings as the source states them, for the method shown.

B1: PqiC^17-187, N-terminally truncated soluble construct of E. coli PqiC (domain or fragment, UniProt P0AB10 17-187)
chain: SSGEINKNYYQLPVVQSGTQSTASQGNRLLWVEQVTVPDYLAGNGVVYQTSDVKYVIANNNLWASPLDQQLRNTLVANLSTQLPGWVVASQPLGSAQDTLNVTVTEFNGRYDGKVIVSGEWLLNHQGQLIKRPFRLEGVQTQDGYDEMVKVLAGVWSQEAASIAQEIKRLP
B1: the binding entry is “no binding”.

Values taken from publication PMC10897342, “An octameric PqiC toroid stabilises the outer-membrane interaction of the PqiABC transport system” (EMBO Reports, 2024).
